Laboratory results reported in article doi:10.1101/299610.
Results are given in words; binding and its absence hold for the method and conditions named. In cells and extracts the contact can be indirect. Some entries that bind do so weakly or less than the wild type.

The chains behind the UniProt entries cited, without tags or fusion partners.
UniProt Q15836: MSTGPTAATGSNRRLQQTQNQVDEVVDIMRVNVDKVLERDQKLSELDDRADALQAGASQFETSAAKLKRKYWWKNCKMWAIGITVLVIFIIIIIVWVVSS

Target: GFP-VAMP3 (UniProt Q15836)
Test: co-IP

B1: mCherry-WDFY2 (protein, UniProt Q96P53 1-400)
chain: MAAEIQPKPLTRKPILLQRMEGSQEVVNMAVIVPKEEGVISVSEDRTVRVWLKRDSGQYWPSVYHAMPSPCSCMSFNPETRRLSIGLDNGTISEFILSEDYNKMTPVKNYQAHQSRVTMILFVLELEWVLSTGQDKQFAWHCSESGQRLGGYRTSAVASGLQFDVETRHVFIGDHSGQVTILKLEQENCTLVTTFRGHTGGVTALCWDPVQRVLFSGSSDHSVIMWDIGGRKGTAIELQGHNDRVQALSYAQHTRQLISCGGDGGIVVWNMDVERQETPEWLDSDSCQKCDQPFFWNFKQMWDSKKIGLRQHHCRKCGKAVCGKCSSKRSSIPLMGFEFEVRVCDSCHEAITDEERAPTATFHDSKHNIVHVHFDATRGWLLTSGTDKVIKLWDMTPVVS
For B1, the binding was “binds”.
